These are yes or no findings as the source states them, for the method shown. Some results given as binding are weak or reduced against the parent protein; the word gives no strength. Tags and fused reporters may be left off the sequences shown.
T1: His6-tagged human ING2 SAID domain (residues 18-131) (human) (UniProt Q9H160)
T1 sequence: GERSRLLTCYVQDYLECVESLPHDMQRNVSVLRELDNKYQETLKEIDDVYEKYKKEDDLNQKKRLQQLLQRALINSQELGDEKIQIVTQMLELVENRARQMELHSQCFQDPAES

T2: His6-tagged mouse SDS3 (residues 43-234) (mouse) (UniProt Q8BR65)
T2 sequence: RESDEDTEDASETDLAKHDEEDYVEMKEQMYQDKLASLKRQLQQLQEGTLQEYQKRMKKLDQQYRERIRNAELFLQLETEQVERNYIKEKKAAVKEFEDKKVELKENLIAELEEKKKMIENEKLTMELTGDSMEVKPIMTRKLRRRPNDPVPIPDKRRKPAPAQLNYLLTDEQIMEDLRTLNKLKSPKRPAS


How the values were obtained:
[1] = target: T1, His6-tagged human ING2 SAID domain (residues 18-131) (human); assay: SEC; Ni-NTA purified proteins on a Superdex 75 GL column in 25 mM MOPS pH 7.5, 150 mM NaCl, 1 mM TCEP; co-elution; both purified
[2] = target: T2, His6-tagged mouse SDS3 (residues 43-234) (mouse); assay: as above

| binding [1] | binding [2] | Binder |
| --- | --- | --- |
| binds |  | MBP-tagged human SAP130 (residues 924-1048) (domain or fragment, UniProt Q9H0E3 924-1048) EEKKAMLQEIANQKGVSCRAQGWKVHLCAAQLLQLTNLEHDVYERLTNLQEGIIPKKKAATDDDLHRINELIQGNMQRCKLVMDQISEARDSMLKVLDHKDRVLKLLNKNGTVKKVSKLKRKEKV |
|  | binds | maltose-binding protein (MBP)-tagged human BRMS1 (residues 51-179) (domain or fragment, UniProt Q9HCU9 51-179) EDYERRRSECVSEMLDLEKQFSELKEKLFRERLSQLRLRLEEVGAERAPEYTEPLGGLQRSLKIRIQVAGIYKGFCLDVIRNKYECELQGAKQHLESEKLLLYDTLQGELQERIQRLEEDRQSLDLSSE |
